Taken from: PubChem BioAssay AID686943 (Drosophila RNAi Screening Center, 2013)

- Purpose: 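Search across the genome for regulators of signalling from receptor tyrosine kinase to ERK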 (primary screen)
- Cell system: Drosophila S2R+ haemocyte-like cells expressing YFP-tagged ERK (Rolled)
- Reagents: long dsRNA against Drosophila genes
- Treatment: insulin stimulation versus unstimulated cells; dose and duration not given
- Read-out: 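Per-plate z-scores of phospho-ERK immunostaining normalised to YFP-tagged ERK, measured with and without insulin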
- Direction: replicate 1, z-score of dpERK with insulin and replicate 2, z-score of dpERK with insulin: higher = more active ERK per ERK-YFP after insulin
The screen tested about 23,000 reagents; this is a random part of those that have a named target and a result. 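Extra replicates exist only for a retested subset of genes; insulin dose and duration not given; both raised and lowered dpERK matter.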 Not all columns of the deposit are shown. The record does not give: the amount of reagent, the time to read-out.

The opening 2 entries, to show the layout:
hgo (homogentisate 1,2-dioxygenase) [DRSC03544]
- replicate 1, z-score of dpERK with insulin: 1
- replicate 2, z-score of dpERK with insulin: -0.32

naz (nazgul) [DRSC14790]
- replicate 1, z-score of dpERK with insulin: 0.83
- replicate 2, z-score of dpERK with insulin: -0.39

Results, from the start:
hgo (homogentisate 1,2-dioxygenase) [DRSC03544]
- replicate 1, z-score of dpERK with insulin: 1
- replicate 2, z-score of dpERK with insulin: -0.32

naz (nazgul) [DRSC14790]
- replicate 1, z-score of dpERK with insulin: 0.83
- replicate 2, z-score of dpERK with insulin: -0.39

naz (nazgul) [DRSC16199]
- replicate 1, z-score of dpERK with insulin: 0.19
- replicate 2, z-score of dpERK with insulin: 0.22

CG8043 [DRSC16368]
- replicate 1, z-score of dpERK with insulin: 0.57
- replicate 2, z-score of dpERK with insulin: -0.22

karr [DRSC20681]
- replicate 1, z-score of dpERK with insulin: 0
- replicate 2, z-score of dpERK with insulin: 0.84

PpD6 (Protein phosphatase D6) [DRSC00774]
- replicate 1, z-score of dpERK with insulin: -1.03
- replicate 2, z-score of dpERK with insulin: -0.72

CG1648 [DRSC06610]
- replicate 1, z-score of dpERK with insulin: 0.14
- replicate 2, z-score of dpERK with insulin: 0.36

dl (dorsal) [DRSC03520]
- replicate 1, z-score of dpERK with insulin: -0.36
- replicate 2, z-score of dpERK with insulin: 0.4

dl (dorsal) [DRSC03521]
- replicate 1, z-score of dpERK with insulin: -0.62
- replicate 2, z-score of dpERK with insulin: 0.6

Stacl (Stac-like) [DRSC05553]
- replicate 1, z-score of dpERK with insulin: -2.97
- replicate 2, z-score of dpERK with insulin: -4.1

Stacl (Stac-like) [DRSC06260]
- replicate 1, z-score of dpERK with insulin: 0.09
- replicate 2, z-score of dpERK with insulin: 0.86

Stacl (Stac-like) [DRSC06261]
- replicate 1, z-score of dpERK with insulin: 0.59
- replicate 2, z-score of dpERK with insulin: 0.26

Stacl (Stac-like) [DRSC06777]
- replicate 1, z-score of dpERK with insulin: -0.12
- replicate 2, z-score of dpERK with insulin: 0.48

Stacl (Stac-like) [DRSC07091]
- replicate 1, z-score of dpERK with insulin: -4.46
- replicate 2, z-score of dpERK with insulin: -0.25
